Assay results from PMC7862700.
This is one part of the list. The source does not settle which construct or isoform was used.

target: T1, ETS1 (UniProt P14921); assay: DAPPL (digital affinity profiling via proximity ligation, sequencing); details: 10 mM Tris-HCl pH 7.5, 50 mM NaCl, 1 mM DTT, 4% glycerol, room temperature, 30 min; GST-TFs on glutathione beads, 16-mer random dsDNA library, 0.1% …; high values mean tight binding; double strand, one strand shown; scale: fold enrichment (6-mer frequency, TF over GST control)
T1 sequence: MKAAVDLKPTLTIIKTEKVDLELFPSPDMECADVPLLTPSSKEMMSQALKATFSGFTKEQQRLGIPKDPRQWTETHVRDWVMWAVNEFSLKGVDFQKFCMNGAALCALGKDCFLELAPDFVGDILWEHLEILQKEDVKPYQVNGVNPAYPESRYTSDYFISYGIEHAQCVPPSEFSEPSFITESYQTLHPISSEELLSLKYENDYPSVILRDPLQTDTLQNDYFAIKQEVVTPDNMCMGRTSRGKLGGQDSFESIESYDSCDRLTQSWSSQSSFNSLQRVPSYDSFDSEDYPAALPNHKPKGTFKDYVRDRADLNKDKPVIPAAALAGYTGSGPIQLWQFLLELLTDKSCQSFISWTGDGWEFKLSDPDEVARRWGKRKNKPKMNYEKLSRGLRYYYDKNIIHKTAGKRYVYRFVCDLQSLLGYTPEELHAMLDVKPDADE

Sequence | binding signal
CTTTTG | 1.32
GTAAAA | 1.13
CGCTCC | 1.26
GTTCTA | 1.19
CGTACT | 1.25
ACAAGC | 1.19
CTTCTG | 1.53
ATTGCG | 1.19
AAGTCC | 1.24
TCATTC | 1.27
TTCCTG | 2.36
ATAGCA | 1.16
GGTATA | 1.07
CCACGC | 1.18
CCTTGG | 1.28
TTCCTC | 2.07
AAATGA | 1.31
CTAATG | 1.22
TGTATC | 1.39
AAGCTC | 1.22

Sequence | binding signal
CGACCC | 1.34
TATTTC | 2.04
TTTCCT | 2.28
AAATAT | 1.37
CAATCA | 1.19
TCTCGA | 1.4
CCCCCG | 1.06
ACTACC | 1.63
TCTGCC | 1.44
GAATTC | 1.43
GTTACG | 1.05
AAAATC | 1.27
CCTCTC | 1.48
AACTTC | 2.52
CTTGTT | 1.23
CTCCGG | 1.54
TCCCAA | 1.17
TCCCCA | 1.38
ATCCCT | 1.25

Part of the list above, field by field:
CCCCCG
  binding signal = 1.06
AAAATC
  binding signal = 1.27
